In PMC5103296:

Target: GST-PDZ2 (syntenin-1 PDZ2 domain)
Assay: pull-down; purified GST-PDZ2 or mutants incubated with biotinylated 4L for 2 hr; bound material detected by immunoblotting with anti-biotin antibody; both purified

B1: biotinylated syndecan-4 cytoplasmic domain peptide (biotinylated 4L) (peptide)
peptide: RMKKKDEGSYDLGKKPIYKKAPTNEFYA
modifications: biotin (Mini-biotin-XX protein labeling kit), site not stated
With B1 the binding was “binds”.

Results are given in words; binding and its absence hold for the method and conditions named. Binding calls can cover weak binding; strength is not graded here.
